# According to publication PMC10731709:
# By UniProt entry, the sequences of proteins in these tests, tags left out.
# UniProt Q0VBB0: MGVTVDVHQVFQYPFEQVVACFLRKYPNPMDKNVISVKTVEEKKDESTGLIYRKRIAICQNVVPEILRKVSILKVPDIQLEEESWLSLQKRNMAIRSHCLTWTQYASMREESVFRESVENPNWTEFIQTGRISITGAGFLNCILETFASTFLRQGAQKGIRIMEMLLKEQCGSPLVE
# UniProt Q9D8Z2: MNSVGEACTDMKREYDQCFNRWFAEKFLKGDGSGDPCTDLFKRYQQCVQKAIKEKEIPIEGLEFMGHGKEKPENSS
# Results are given in words; binding and its absence hold for the method and conditions named. Binding seen in cells or lysates may run through a third protein. Some entries that bind do so weakly or less than the wild type. For part of these data: Where a sequence is shown, tags or fusion partners need not be part of it.
# What was measured:
# [1] = target: T1, Flag-FBXL6 (F-box and leucine-rich repeat 6) (human) (UniProt Q8N531); experiment: co-IP; HA-KRAS and Flag-FBXL6 both ectopically expressed; lysate precipitated with anti-Flag antibody and protein A/G agarose, Western blot; cells not given
# T1 sequence: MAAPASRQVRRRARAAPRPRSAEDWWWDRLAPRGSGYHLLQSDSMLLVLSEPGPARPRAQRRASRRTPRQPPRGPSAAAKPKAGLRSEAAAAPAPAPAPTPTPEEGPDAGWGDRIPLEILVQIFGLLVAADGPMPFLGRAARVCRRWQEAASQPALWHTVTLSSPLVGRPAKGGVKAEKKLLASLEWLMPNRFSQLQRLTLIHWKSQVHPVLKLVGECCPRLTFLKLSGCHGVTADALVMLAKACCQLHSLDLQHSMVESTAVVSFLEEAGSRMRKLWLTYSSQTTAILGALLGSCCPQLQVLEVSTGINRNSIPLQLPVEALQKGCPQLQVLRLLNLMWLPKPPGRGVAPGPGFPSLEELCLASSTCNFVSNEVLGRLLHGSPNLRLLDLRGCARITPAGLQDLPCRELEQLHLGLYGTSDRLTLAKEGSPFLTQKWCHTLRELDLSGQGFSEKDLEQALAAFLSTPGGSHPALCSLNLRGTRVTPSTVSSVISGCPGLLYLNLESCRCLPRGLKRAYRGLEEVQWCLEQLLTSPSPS
# [2] = target: Prelid2 (proteins of relevant evolutionary and lymphoid interest (PRELI) domain 2) (mouse) (UniProt Q0VBB0); experiment: co-IP; Triap1 with Prelid2 (Fig. S4b); cells, bait and antibodies not stated in the text shown
# [3] = target: T1, Flag-FBXL6 (F-box and leucine-rich repeat 6) (human); experiment: co-IP; Huh7 and Hep3B cells transfected with Flag-FBXL6 for 48 h and lysed; indicated antibodies and protein A/G PLUS-agarose added; endogenous KRAS detected
substance,measurement,setting,value
HA-KRAS (Kirsten rat sarcoma) (from UniProt P01116 1-189),binding,[1],binds
Triap1 (from UniProt Q9D8Z2 1-76),binding,[2],binds
endogenous KRAS (from UniProt P01116 1-189),binding,[3],binds
